According to the supplement of paper PMC6411743:
± gives the standard deviation of the averaged measurements. Only a part is listed here, and it is no random draw.

Chains of the proteins cited; added tags and fusions are not shown. Lines headed by an entry give the natural chain unless they say otherwise; changes in a name come on top.
UniProt Q9BSD7: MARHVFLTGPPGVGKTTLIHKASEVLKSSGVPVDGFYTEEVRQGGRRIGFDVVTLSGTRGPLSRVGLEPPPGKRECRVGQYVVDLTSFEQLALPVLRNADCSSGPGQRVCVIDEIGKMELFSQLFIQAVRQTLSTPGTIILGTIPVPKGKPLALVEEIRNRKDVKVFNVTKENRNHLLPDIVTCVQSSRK
UniProt Q9BUE0: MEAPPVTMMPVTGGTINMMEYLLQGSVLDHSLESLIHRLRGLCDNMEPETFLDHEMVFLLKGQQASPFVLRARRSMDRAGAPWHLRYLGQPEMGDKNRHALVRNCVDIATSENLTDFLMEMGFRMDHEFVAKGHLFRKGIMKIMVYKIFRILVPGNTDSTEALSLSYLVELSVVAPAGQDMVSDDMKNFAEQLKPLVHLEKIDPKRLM
UniProt Q9BRD0: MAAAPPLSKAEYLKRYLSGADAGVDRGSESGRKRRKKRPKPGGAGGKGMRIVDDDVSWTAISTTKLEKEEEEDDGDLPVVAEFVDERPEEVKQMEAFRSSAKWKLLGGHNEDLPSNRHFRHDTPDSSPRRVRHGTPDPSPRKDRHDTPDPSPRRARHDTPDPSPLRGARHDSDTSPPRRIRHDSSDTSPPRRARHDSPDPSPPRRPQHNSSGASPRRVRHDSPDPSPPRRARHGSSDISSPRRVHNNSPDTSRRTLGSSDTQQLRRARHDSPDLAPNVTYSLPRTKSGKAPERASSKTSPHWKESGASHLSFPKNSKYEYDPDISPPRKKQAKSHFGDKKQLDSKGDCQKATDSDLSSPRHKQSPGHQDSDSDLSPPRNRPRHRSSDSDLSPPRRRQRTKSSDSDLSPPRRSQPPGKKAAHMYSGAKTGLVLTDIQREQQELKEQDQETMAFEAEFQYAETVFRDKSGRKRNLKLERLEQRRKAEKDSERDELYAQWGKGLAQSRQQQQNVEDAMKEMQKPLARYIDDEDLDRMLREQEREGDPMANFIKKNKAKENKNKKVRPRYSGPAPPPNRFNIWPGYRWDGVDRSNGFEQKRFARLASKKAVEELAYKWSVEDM
UniProt Q9BXK1: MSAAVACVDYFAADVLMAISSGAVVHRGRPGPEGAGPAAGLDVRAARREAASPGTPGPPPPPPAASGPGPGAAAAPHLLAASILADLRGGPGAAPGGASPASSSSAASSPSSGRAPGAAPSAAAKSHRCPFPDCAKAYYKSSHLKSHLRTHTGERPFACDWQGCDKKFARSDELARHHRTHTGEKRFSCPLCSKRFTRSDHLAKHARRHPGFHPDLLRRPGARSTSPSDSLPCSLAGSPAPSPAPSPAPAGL
UniProt Q9BYT3: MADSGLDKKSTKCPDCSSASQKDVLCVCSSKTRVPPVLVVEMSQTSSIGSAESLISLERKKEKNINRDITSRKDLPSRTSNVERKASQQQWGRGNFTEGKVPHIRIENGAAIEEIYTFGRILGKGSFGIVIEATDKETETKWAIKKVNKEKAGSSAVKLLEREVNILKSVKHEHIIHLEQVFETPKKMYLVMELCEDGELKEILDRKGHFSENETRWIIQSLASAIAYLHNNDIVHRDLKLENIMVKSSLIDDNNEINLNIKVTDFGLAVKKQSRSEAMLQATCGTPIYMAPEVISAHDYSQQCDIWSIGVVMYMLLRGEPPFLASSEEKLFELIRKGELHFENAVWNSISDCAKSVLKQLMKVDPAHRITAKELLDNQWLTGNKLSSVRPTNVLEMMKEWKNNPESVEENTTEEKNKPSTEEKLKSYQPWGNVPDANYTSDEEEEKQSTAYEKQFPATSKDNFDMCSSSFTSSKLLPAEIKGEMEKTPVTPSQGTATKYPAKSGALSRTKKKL
UniProt Q9BXM9: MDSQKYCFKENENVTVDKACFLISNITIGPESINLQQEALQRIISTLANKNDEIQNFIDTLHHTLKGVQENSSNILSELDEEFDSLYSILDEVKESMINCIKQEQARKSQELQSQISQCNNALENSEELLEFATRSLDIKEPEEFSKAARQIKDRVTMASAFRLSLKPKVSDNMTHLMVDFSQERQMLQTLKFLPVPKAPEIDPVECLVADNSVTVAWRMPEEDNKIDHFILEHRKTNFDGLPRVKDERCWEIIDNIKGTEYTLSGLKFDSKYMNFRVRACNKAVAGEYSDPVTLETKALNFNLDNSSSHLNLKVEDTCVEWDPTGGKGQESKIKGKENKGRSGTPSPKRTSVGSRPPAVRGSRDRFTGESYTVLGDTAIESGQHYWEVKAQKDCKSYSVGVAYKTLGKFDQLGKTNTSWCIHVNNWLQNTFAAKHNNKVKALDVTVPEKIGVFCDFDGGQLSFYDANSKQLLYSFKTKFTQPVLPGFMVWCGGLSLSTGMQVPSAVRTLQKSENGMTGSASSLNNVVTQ
UniProt Q96TC7: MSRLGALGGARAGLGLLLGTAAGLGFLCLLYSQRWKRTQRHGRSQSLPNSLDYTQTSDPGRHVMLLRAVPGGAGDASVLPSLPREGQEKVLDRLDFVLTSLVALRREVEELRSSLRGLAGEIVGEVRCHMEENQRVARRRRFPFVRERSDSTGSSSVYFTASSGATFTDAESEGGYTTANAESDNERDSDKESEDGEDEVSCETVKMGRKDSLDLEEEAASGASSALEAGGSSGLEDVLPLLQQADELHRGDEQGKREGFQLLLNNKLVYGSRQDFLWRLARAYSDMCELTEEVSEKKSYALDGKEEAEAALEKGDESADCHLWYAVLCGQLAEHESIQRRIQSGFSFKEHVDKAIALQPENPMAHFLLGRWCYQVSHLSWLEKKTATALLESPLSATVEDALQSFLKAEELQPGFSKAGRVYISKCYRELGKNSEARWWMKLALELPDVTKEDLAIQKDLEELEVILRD
UniProt Q99613, whole entry: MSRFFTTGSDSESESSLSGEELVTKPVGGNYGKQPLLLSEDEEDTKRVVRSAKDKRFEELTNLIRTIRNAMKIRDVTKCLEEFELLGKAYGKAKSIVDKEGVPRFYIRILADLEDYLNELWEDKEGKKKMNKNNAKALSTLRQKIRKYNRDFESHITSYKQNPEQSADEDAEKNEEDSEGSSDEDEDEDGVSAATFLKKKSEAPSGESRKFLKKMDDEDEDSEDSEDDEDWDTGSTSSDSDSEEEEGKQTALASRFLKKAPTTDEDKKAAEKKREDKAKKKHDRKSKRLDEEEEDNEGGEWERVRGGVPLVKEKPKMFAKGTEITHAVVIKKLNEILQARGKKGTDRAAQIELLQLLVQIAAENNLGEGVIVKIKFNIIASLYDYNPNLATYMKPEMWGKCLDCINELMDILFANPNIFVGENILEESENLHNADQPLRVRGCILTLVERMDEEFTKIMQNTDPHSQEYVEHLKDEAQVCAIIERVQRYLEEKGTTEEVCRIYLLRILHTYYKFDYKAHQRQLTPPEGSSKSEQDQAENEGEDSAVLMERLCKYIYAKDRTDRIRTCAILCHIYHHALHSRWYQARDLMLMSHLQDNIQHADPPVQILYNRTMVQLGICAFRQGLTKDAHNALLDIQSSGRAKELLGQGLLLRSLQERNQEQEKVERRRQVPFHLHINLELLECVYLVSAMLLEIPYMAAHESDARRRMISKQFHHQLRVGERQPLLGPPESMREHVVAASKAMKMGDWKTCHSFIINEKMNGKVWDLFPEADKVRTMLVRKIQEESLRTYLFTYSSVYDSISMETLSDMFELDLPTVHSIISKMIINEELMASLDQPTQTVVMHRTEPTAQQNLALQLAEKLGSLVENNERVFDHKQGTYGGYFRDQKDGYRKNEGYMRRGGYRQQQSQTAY
UniProt Q9BWE0: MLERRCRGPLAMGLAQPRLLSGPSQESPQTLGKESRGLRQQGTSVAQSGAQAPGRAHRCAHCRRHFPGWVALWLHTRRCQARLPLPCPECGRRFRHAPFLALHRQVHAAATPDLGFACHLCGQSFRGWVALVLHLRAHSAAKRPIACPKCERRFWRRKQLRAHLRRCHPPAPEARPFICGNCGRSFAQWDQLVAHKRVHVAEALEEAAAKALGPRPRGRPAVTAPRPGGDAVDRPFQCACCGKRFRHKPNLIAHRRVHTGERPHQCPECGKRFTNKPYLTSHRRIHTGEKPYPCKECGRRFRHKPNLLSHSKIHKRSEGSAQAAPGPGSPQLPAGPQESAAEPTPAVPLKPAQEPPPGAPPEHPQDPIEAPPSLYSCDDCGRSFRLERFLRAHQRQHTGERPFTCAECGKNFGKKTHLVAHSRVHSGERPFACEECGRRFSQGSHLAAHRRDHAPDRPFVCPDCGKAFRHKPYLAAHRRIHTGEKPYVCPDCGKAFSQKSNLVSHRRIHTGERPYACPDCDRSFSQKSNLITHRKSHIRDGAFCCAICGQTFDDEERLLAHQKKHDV
UniProt Q9BXL5: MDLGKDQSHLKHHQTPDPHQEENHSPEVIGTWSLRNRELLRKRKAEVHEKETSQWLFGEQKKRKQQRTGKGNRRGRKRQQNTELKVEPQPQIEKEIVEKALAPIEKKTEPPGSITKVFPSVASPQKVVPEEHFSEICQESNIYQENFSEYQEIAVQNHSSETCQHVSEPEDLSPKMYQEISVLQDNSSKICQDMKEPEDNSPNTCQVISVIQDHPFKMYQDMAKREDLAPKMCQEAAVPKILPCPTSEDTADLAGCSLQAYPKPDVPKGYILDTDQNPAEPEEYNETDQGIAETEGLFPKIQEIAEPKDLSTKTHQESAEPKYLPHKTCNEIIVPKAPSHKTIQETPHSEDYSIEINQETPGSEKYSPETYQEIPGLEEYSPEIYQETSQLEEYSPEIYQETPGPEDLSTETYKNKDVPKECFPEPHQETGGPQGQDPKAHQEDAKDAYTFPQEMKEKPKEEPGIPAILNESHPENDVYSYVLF
UniProt Q99766: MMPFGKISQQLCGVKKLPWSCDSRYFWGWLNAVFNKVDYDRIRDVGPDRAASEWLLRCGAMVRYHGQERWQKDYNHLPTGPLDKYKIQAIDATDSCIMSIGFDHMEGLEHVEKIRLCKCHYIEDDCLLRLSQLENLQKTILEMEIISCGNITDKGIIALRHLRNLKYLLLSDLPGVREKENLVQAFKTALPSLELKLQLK
UniProt Q99615: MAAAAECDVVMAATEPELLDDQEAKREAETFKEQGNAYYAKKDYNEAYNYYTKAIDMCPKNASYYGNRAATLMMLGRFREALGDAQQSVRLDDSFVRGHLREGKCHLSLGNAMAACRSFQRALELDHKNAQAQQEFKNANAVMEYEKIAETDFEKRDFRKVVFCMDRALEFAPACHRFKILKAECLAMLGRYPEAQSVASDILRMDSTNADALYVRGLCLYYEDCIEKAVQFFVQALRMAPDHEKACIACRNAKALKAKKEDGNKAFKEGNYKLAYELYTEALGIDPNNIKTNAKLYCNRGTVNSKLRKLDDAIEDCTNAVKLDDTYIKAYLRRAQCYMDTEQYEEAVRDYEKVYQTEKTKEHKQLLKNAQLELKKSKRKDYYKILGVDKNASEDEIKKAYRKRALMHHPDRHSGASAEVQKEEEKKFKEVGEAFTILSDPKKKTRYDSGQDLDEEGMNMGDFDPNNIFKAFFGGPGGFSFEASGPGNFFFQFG
UniProt Q9BSU1: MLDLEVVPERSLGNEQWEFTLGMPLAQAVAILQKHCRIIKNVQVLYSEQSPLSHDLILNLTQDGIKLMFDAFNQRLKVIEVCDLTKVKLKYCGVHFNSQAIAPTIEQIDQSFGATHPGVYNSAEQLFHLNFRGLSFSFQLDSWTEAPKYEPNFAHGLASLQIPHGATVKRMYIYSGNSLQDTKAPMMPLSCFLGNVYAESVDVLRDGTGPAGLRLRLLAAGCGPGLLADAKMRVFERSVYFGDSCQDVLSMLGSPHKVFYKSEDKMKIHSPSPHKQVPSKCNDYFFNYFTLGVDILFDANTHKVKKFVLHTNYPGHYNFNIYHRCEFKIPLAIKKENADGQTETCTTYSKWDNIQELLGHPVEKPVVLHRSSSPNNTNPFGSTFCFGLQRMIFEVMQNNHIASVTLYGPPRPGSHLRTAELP
UniProt Q9BWT3: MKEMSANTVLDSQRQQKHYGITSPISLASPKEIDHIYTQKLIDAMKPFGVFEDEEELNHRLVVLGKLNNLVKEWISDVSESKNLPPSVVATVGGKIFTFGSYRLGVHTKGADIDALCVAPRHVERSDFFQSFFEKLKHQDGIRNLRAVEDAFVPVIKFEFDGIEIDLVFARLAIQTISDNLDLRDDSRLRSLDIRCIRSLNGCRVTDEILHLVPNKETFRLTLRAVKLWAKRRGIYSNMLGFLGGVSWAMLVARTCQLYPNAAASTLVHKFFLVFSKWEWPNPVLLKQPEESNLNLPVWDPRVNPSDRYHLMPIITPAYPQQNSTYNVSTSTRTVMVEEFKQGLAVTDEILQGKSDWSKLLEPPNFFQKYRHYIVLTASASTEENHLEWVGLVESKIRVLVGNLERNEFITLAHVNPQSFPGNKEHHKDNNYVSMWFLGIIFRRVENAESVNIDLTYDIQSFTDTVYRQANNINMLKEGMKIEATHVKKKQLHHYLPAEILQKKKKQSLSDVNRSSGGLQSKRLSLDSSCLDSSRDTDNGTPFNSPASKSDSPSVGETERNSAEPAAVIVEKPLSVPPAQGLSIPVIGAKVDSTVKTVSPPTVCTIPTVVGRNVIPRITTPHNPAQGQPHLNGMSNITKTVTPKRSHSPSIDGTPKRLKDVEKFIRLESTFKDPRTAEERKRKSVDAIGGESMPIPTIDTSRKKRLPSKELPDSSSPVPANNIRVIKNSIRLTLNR

Compound: Nc1ncnc2c1ncn2[C@@H]1O[C@H](COP(=O)(O)OP(=O)(O)OP(=O)(O)O)[C@@H](O)[C@H]1O [adenosine triphosphate]
Assay: NP40-soluble protein abundance relative to vehicle (solubility fold change) (ratio); higher = more soluble protein in presence of ATP
In short: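 In three independent experiments, Jurkat crude lysate made by Dounce homogenisation was treated for 10 min at room temperature and then 3 min at 37 °C with eight concentrations ranging from 0.1 to 10 mM. It was then solubilised with 0.8% NP40 plus benzonase for 60 min at 4 °C and ultracentrifuged. The supernatant was TMT-labelled for LC-MS/MS, and each value is the fold change against the detergent-processed vehicle for the same replicate, using vsn-normalised intensities.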

Target	NP40-soluble protein abundance (concentration: 1mM)	NP40-soluble protein abundance (concentration: 2mM)	NP40-soluble protein abundance (concentration: 4mM)	NP40-soluble protein abundance (concentration: 6mM)	NP40-soluble protein abundance (concentration: 8mM)	NP40-soluble protein abundance (concentration: 10mM)
SH3GL2 (UniProt Q99962)	1.03 ± 0.022	1.01 ± 0.029	1.03 ± 0.051	1.01 ± 0.052	0.97 ± 0.016	0.961 ± 0.099
GTPBP4 (UniProt Q9BZE4)	1.22 ± 0.03	1.261 ± 0.011	1.38 ± 0.067	1.38 ± 0.068	1.42 ± 0.059	1.51 ± 0.059
UniProt Q9BSD7	1.07 ± 0.04	1.06 ± 0.016	1.03 ± 0.034	1.07 ± 0.046	1.04 ± 0.025	1.04 ± 0.034
MRPS26 (UniProt Q9BYN8)	0.999 ± 0.1	0.875 ± 0.093	0.898 ± 0.16	0.848 ± 0.15	0.882 ± 0.11	0.778 ± 0.14
UniProt Q9BSJ8 and related entries	1.02 ± 0.075	1 ± 0.059	0.988 ± 0.037	0.975 ± 0.093	0.999 ± 0.049	0.982 ± 0.052
MED18 (UniProt Q9BUE0)	1.03 ± 0.1	0.997 ± 0.048	0.97 ± 0.049	1.02 ± 0.043	1.02 ± 0.026	0.97 ± 0.072
UniProt Q9BSF4	0.892 ± 0.06	0.948 ± 0.041	0.967 ± 0.042	0.845 ± 0.063	0.907 ± 0.057	0.994 ± 0.03
UniProt Q9BRJ7 and related entries	0.99 ± 0.078	1.04 ± 0.016	1.02 ± 0.065	0.935 ± 0.09	0.988 ± 0.038	1.03 ± 0.038
PDCD2L (UniProt Q9BRP1)	1.04 ± 0.047	1.01 ± 0.063	1.02 ± 0.055	1.04 ± 0.073	0.997 ± 0.031	1.02 ± 0.039
DCUN1D5 (UniProt Q9BTE7)	1.03 ± 0.092	1.01 ± 0.044	0.967 ± 0.043	0.969 ± 0.1	0.994 ± 0.027	0.964 ± 0.064
UniProt Q9BZQ6-2	1.02 ± 0.06	1.01 ± 0.016	0.955 ± 0.057	0.99 ± 0.035	0.991 ± 0.022	1 ± 0.08
GINS3 (UniProt Q9BRX5)	0.976 ± 0.053	0.958 ± 0.064	0.938 ± 0.042	0.989 ± 0.057	0.9293 ± 0.0041	0.887 ± 0.076
BUD13 (UniProt Q9BRD0)	1.11 ± 0.086	1.12 ± 0.056	1.18 ± 0.068	1.23 ± 0.066	1.2413 ± 0.0006	1.22 ± 0.081
UniProt Q9BUE6 and related entries	0.94 ± 0.018	0.9988 ± 0.0037	1.03 ± 0.064	1.02 ± 0.052	0.959 ± 0.037	0.984 ± 0.059
UniProt Q9BRK0-2|B4DE60 and related entries	0.891 ± 0.011	0.873 ± 0.061	0.919 ± 0.096	0.904 ± 0.059	0.801 ± 0.088	0.924 ± 0.072
UniProt Q99460 and related entries	0.929 ± 0.033	0.882 ± 0.026	0.849 ± 0.025	0.867 ± 0.084	0.878 ± 0.059	0.869 ± 0.06
BRIP1 (UniProt Q9BX63)	1.04 ± 0.057	1.03 ± 0.053	1.11 ± 0.1	1.07 ± 0.071	1.03 ± 0.092	1.05 ± 0.095
KLF16 (UniProt Q9BXK1)	0.952 ± 0.12	0.904 ± 0.11	0.941 ± 0.064	0.946 ± 0.14	0.967 ± 0.16	0.962 ± 0.12
PELO (UniProt Q9BRX2)	1.01 ± 0.08	0.999 ± 0.058	1 ± 0.038	1.01 ± 0.087	1.06 ± 0.035	1.06 ± 0.034
UniProt Q9BZF2	1.16 ± 0.09	1.14 ± 0.11	1.17 ± 0.1	1.09 ± 0.14	1.09 ± 0.095	1.09 ± 0.11
NEU1 (UniProt Q99519)	0.987 ± 0.044	1.04 ± 0.024	1.01 ± 0.043	1.06 ± 0.051	0.989 ± 0.019	0.96 ± 0.054
UniProt Q9BYT3 and related entries	0.887 ± 0.16	0.889 ± 0.11	0.905 ± 0.14	0.897 ± 0.15	0.854 ± 0.085	0.938 ± 0.15
PRPF18 (UniProt Q99633)	0.972 ± 0.026	0.94 ± 0.014	1 ± 0.024	1.01 ± 0.044	1.03 ± 0.014	1.01 ± 0.052
UniProt Q9BXM9 and related entries	0.975 ± 0.043	0.938 ± 0.072	0.96 ± 0.045	0.942 ± 0.085	0.924 ± 0.08	0.95 ± 0.036
UniProt Q99728 and related entries	1.06 ± 0.059	1.14 ± 0.076	1.17 ± 0.031	1.18 ± 0.026	1.16 ± 0.019	1.19 ± 0.036
UniProt Q9BYD1 and related entries	1.11 ± 0.039	0.975 ± 0.035	0.974 ± 0.065	0.915 ± 0.2	0.926 ± 0.13	0.943 ± 0.14

Target	NP40-soluble protein abundance (concentration: 1mM)	NP40-soluble protein abundance (concentration: 2mM)	NP40-soluble protein abundance (concentration: 4mM)	NP40-soluble protein abundance (concentration: 6mM)	NP40-soluble protein abundance (concentration: 8mM)	NP40-soluble protein abundance (concentration: 10mM)
UniProt Q9BUL5 and related entries	0.929 ± 0.02	0.924 ± 0.022	0.919 ± 0.031	0.956 ± 0.022	0.908 ± 0.029	0.933 ± 0.035
CCT7 (UniProt Q99832)	0.974 ± 0.11	0.908 ± 0.11	0.83 ± 0.021	0.807 ± 0.072	0.86 ± 0.059	0.816 ± 0.065
TBCB (UniProt Q99426)	0.943 ± 0.049	0.959 ± 0.019	0.928 ± 0.017	0.959 ± 0.049	0.923 ± 0.024	0.905 ± 0.02
UniProt Q96TC7	1.05 ± 0.061	1.06 ± 0.028	1.03 ± 0.043	1.06 ± 0.037	1.01 ± 0.065	1.05 ± 0.053
UniProt Q99613 and related entries	0.97 ± 0.067	0.988 ± 0.076	1.06 ± 0.09	1.16 ± 0.14	1.24 ± 0.085	1.34 ± 0.12
PTDSS2 (UniProt Q9BVG9)	0.981 ± 0.15	0.94 ± 0.1	0.964 ± 0.12	0.741 ± 0.069	0.899 ± 0.089	0.877 ± 0.13
TSG101 (UniProt Q99816)	0.966 ± 0.027	0.9612 ± 0.0022	0.939 ± 0.03	0.968 ± 0.01	0.942 ± 0.016	0.905 ± 0.042
UHRF1 (UniProt Q96T88)	1.07 ± 0.065	1.07 ± 0.073	1.09 ± 0.082	1.16 ± 0.068	1.13 ± 0.086	1.15 ± 0.077
CNPY3 (UniProt Q9BT09)	0.907 ± 0.056	0.892 ± 0.031	0.854 ± 0.019	0.922 ± 0.021	0.857 ± 0.041	0.815 ± 0.063
UniProt Q9BWE0 and related entries	0.964 ± 0.033	0.964 ± 0.029	1.04 ± 0.028	0.972 ± 0.071	0.969 ± 0.067	1.02 ± 0.025
HEMGN (UniProt Q9BXL5)	0.908 ± 0.076	0.911 ± 0.038	0.914 ± 0.015	0.953 ± 0.062	0.863 ± 0.034	0.889 ± 0.033
UniProt Q99766	1.03 ± 0.071	0.98 ± 0.049	0.999 ± 0.036	0.982 ± 0.06	0.907 ± 0.017	0.946 ± 0.045
DNAJC7 (UniProt Q99615)	0.97 ± 0.015	0.941 ± 0.026	0.918 ± 0.018	0.973 ± 0.031	0.939 ± 0.03	0.919 ± 0.036
UniProt Q9BT25 and related entries	0.976 ± 0.035	0.918 ± 0.028	0.935 ± 0.033	0.951 ± 0.061	0.9181 ± 0.0017	0.92 ± 0.051
UniProt Q9BVS4	1.09 ± 0.08	1.09 ± 0.074	1.08 ± 0.055	1.14 ± 0.12	1.1 ± 0.073	1.13 ± 0.025
UniProt Q99871 and related entries	0.965 ± 0.066	0.973 ± 0.058	0.975 ± 0.021	0.973 ± 0.05	0.949 ± 0.035	0.924 ± 0.065
UniProt Q9BQI0 and related entries	0.867 ± 0.14	0.888 ± 0.13	0.9 ± 0.12	0.932 ± 0.16	0.898 ± 0.066	0.869 ± 0.13
C16orf70 (UniProt Q9BSU1)	0.975 ± 0.098	0.992 ± 0.097	0.985 ± 0.081	0.898 ± 0.12	1.01 ± 0.096	0.971 ± 0.029
UniProt Q9BQT9 and related entries	1 ± 0.048	1.04 ± 0.091	1.11 ± 0.068	1 ± 0.079	1.02 ± 0.089	1.03 ± 0.047
PAPOLG (UniProt Q9BWT3)	1.125 ± 0.011	1.154 ± 0.011	1.25 ± 0.089	1.3 ± 0.065	1.28 ± 0.076	1.26 ± 0.015
VAT1 (UniProt Q99536)	1 ± 0.057	0.971 ± 0.033	0.933 ± 0.028	0.979 ± 0.05	0.935 ± 0.044	0.94 ± 0.051
UniProt Q9BUK6 and related entries	1.01 ± 0.053	0.994 ± 0.023	0.957 ± 0.029	0.966 ± 0.049	0.982 ± 0.017	1.01 ± 0.012
DESI2 (UniProt Q9BSY9)	0.958 ± 0.043	0.957 ± 0.014	0.964 ± 0.011	0.93061 ± 0.00028	0.924 ± 0.098	0.9507 ± 0.0074
SPATA5L1 (UniProt Q9BVQ7)	1.4 ± 0.049	1.43 ± 0.092	1.46 ± 0.14	1.42 ± 0.14	1.51 ± 0.2	1.51 ± 0.14
GPA33 (UniProt Q99795)	0.967 ± 0.097	1.02 ± 0.091	0.976 ± 0.1	0.981 ± 0.064	0.941 ± 0.083	0.963 ± 0.11
UniProt Q9BPX7-2|Q9BPX7	0.979 ± 0.031	0.992 ± 0.047	0.978 ± 0.03	0.978 ± 0.064	0.94 ± 0.063	0.976 ± 0.036

4 entries picked at random from those above:
Target	NP40-soluble protein abundance (concentration: 1mM)	NP40-soluble protein abundance (concentration: 2mM)	NP40-soluble protein abundance (concentration: 4mM)	NP40-soluble protein abundance (concentration: 6mM)	NP40-soluble protein abundance (concentration: 8mM)	NP40-soluble protein abundance (concentration: 10mM)
NEU1 (UniProt Q99519)	0.987 ± 0.044	1.04 ± 0.024	1.01 ± 0.043	1.06 ± 0.051	0.989 ± 0.019	0.96 ± 0.054
UniProt Q9BUE6 and related entries	0.94 ± 0.018	0.9988 ± 0.0037	1.03 ± 0.064	1.02 ± 0.052	0.959 ± 0.037	0.984 ± 0.059
C16orf70 (UniProt Q9BSU1)	0.975 ± 0.098	0.992 ± 0.097	0.985 ± 0.081	0.898 ± 0.12	1.01 ± 0.096	0.971 ± 0.029
VAT1 (UniProt Q99536)	1 ± 0.057	0.971 ± 0.033	0.933 ± 0.028	0.979 ± 0.05	0.935 ± 0.044	0.94 ± 0.051
